At least one compound was matched to its structure with a doubt left.
Test system: M. tuberculosis Erdman strain
Assay: broth microdilution in 7H9 broth, 96 well plates, M. tuberculosis growth after 1 week of incubation
Format: cell-based
Conditions: imipenem 1-2 μg/ml and 0.5-2 μg/ml clavulanate; one week of incubation

## C[C@@H](O)[C@H]1C(=O)N2C(C(=O)O)=C(SCCN=CN)C[C@H]12 [imipenem]
  inhibition of M. tuberculosis growth: showed inhibition of M. tuberculosis growth
